The list shows a part of the results. Many values rest on one well or one pass, so single values are uncertain.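 Pooled together, 41 HAP1 clones carry intronic fluorescent tags on 61 cancer-associated proteins, and each clone is recognized by its imaging pattern. Measurements are benchmarked against DMSO-treated control wells. dBET6, a BRD4 degrader, served as the positive control.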
target: XPO1 (intron 15 mScarlet tag, HAP1) (UniProt O14980); assay: XPO1 fluorescence intensity change vs DMSO (log2 fold change); higher = more XPO1 protein; details: 6 h

Protein sequences, listed by entry. Tags and fused reporters are not part of them.
UniProt O14980, whole entry: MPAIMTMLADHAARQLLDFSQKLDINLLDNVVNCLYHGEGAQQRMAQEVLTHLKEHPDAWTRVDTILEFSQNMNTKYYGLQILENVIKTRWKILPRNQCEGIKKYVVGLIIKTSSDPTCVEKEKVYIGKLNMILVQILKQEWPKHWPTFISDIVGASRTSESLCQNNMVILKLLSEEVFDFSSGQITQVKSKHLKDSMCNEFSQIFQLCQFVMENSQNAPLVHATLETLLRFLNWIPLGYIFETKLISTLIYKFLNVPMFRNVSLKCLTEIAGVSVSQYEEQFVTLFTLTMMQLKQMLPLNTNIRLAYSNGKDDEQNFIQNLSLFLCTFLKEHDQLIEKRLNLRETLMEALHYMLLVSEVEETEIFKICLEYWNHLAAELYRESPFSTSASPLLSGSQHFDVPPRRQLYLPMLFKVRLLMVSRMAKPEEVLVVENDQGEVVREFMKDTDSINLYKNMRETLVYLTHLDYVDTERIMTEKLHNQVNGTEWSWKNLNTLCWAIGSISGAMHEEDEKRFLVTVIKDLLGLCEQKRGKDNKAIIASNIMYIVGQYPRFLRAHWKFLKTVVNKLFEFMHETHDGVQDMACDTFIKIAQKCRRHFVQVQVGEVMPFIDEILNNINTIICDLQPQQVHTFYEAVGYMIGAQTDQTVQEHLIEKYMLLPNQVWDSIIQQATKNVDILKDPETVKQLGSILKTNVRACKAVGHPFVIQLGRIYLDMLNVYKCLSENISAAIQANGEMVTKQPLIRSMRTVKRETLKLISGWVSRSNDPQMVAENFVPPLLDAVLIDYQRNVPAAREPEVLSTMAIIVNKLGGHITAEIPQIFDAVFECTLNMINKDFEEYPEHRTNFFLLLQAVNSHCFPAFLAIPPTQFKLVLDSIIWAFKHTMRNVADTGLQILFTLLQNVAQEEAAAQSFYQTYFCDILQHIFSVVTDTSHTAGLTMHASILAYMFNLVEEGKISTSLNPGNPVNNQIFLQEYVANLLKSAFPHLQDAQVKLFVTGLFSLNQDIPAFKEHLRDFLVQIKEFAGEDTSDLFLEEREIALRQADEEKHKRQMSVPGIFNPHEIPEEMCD

Row | Structure (SMILES) | XPO1 fluorescence intensity change (log2)
1 | CC(=O)NCCCS(=O)(=O)O [Acamprosate] (22.0736 µM) | 0.137
2 | N[C@@H](CCC(=O)N[C@@H](CSN=O)C(=O)NCC(=O)O)C(=O)O [Nitrosoglutathione] (10 µM) | 0.12
3 | COc1cc2c(Oc3ccc4[nH]c(C)cc4c3F)ncnc2cc1OCCCN1CCCC1 [Cediranib] (10 µM) | 0.0628
4 | CC1(C)N=C(N)N=C(N)N1c1ccc(Cl)cc1 [Cycloguanil] (11.4 µM) | 0.0106
5 | N=C(N)NC(=O)Cc1c(Cl)cccc1Cl [Guanfacine] (10 µM) | -0.282
6 | O=C1CN(/N=C/c2ccc(-c3ccc([N+](=O)[O-])cc3)o2)C(=O)N1 [Dantrolene] (10 µM) | -0.0218
7 | NC(=O)NO [Hydroxyurea] (20 µM) | 0.0689
8 | CN(C)C(=N)NC(=N)N [Metformin] (10 µM) | -0.0459
9 | Nc1cccc2c1CN(C1CCC(=O)NC1=O)C2=O (stereo not given) [Lenalidomide] (4.1665 µM) | 0.17
10 | CN(C)CCCC1(c2ccc(F)cc2)OCc2cc(C#N)ccc21 (stereo not given) [Citalopram] (10 µM) | -0.0686

In a second layout: entries from further up
CC1(C)N=C(N)N=C(N)N1c1ccc(Cl)cc1 [Cycloguanil] (11.4 µM)
  XPO1 fluorescence intensity change (log2): 0.0106
N=C(N)NC(=O)Cc1c(Cl)cccc1Cl [Guanfacine] (10 µM)
  XPO1 fluorescence intensity change (log2): -0.282

From the supplement of paper PMC11098740
